Experimental data taken from PMC10182654, “The pattern of histone H3 epigenetic posttranslational modifications is regulated by the VRK1 chromatin kinase” (Epigenetics & Chromatin, 2023).
These are yes or no findings as the source states them, for the method shown. Binding seen in cells or lysates may run through a third protein. Some results given as binding are weak or reduced against the parent protein; the word gives no strength. Sequences can lack the tags named with a protein.

The chains behind the UniProt entries cited, without tags or fusion partners.
UniProt Q13547: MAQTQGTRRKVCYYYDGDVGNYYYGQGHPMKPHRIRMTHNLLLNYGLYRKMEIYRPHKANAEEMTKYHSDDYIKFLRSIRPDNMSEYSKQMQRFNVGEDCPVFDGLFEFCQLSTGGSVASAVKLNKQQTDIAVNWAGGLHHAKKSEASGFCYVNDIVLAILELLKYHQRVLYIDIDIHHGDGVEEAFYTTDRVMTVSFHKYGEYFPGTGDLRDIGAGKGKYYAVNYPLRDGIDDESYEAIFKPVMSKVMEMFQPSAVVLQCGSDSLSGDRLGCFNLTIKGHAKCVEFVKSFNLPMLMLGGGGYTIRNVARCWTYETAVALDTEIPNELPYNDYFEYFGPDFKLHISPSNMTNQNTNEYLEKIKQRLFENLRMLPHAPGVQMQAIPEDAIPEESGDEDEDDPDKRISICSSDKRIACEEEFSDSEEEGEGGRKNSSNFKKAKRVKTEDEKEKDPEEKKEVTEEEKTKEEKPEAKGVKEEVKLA
UniProt Q92831: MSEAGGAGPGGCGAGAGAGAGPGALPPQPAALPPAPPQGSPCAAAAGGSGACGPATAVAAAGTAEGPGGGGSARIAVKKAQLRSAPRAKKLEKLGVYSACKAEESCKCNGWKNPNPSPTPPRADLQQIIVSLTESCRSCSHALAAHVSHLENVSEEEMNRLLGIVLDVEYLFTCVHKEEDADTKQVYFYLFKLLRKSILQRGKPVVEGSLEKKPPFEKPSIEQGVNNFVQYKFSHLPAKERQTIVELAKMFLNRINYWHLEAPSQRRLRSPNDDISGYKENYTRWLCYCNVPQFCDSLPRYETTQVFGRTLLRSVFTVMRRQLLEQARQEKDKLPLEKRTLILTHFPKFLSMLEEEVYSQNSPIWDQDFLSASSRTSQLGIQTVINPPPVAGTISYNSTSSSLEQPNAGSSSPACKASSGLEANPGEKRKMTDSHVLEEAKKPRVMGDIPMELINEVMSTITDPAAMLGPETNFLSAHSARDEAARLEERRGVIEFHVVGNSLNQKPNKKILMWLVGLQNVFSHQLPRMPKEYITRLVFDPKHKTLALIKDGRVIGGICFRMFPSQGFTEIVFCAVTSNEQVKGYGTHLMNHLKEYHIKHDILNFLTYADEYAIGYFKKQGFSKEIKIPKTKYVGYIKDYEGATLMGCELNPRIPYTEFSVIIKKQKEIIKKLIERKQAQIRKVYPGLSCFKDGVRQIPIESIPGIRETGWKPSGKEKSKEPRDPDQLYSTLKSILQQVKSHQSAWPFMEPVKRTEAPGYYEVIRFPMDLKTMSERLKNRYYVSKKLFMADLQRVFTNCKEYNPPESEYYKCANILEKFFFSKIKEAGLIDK

What was measured:
Assay in all cases: co-IP; 0.5–1 mg whole-cell extracts of transfected HEK293T cells; specific antibody 6–8 h at 4, then Protein G–Agarose overnight at 4 °C; immunoblot; increasing amounts of transfected plasmid in some panels
[1] = target: T1, KDM3A (JMJD1A)-V5 (human) (UniProt Q9Y4C1)
T1 sequence: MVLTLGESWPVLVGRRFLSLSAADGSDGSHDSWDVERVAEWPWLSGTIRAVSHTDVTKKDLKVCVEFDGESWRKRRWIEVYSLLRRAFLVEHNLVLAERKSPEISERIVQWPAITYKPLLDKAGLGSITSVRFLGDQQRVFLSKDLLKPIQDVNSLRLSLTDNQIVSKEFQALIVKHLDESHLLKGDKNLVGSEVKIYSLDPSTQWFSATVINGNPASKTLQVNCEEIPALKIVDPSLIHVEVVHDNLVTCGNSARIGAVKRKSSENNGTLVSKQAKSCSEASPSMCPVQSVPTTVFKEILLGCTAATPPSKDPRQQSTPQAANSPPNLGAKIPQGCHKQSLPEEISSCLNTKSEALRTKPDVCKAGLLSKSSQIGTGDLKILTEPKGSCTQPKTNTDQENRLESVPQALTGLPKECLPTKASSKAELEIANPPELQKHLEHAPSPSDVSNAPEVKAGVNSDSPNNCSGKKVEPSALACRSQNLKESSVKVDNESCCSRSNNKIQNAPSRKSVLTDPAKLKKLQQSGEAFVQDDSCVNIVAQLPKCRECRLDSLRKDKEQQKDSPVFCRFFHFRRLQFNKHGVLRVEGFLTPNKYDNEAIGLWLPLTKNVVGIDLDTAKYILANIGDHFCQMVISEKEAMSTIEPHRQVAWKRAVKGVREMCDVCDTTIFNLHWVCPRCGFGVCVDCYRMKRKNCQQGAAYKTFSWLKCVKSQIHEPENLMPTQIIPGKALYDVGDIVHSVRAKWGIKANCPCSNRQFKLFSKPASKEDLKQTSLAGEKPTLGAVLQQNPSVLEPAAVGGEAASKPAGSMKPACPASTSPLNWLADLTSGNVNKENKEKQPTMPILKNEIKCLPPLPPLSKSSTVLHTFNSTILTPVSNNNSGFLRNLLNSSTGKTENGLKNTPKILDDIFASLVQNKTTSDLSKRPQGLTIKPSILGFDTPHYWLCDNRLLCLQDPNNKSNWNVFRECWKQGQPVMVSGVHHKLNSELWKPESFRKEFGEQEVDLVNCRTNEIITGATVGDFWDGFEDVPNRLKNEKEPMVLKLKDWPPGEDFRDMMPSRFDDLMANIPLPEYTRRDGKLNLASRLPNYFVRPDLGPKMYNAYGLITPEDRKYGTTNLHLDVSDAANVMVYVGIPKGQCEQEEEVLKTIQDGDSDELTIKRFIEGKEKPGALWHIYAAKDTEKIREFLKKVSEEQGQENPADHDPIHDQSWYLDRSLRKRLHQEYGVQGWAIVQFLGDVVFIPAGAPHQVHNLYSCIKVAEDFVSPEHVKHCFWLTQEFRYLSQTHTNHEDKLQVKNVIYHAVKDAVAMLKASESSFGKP

HDAC1-Flag (human) = HDAC1-Flag (human) (UniProt Q13547)
[2] = target: T2, KDM4A (JMJD2A)-HA (human) (UniProt O75164)
T2 sequence: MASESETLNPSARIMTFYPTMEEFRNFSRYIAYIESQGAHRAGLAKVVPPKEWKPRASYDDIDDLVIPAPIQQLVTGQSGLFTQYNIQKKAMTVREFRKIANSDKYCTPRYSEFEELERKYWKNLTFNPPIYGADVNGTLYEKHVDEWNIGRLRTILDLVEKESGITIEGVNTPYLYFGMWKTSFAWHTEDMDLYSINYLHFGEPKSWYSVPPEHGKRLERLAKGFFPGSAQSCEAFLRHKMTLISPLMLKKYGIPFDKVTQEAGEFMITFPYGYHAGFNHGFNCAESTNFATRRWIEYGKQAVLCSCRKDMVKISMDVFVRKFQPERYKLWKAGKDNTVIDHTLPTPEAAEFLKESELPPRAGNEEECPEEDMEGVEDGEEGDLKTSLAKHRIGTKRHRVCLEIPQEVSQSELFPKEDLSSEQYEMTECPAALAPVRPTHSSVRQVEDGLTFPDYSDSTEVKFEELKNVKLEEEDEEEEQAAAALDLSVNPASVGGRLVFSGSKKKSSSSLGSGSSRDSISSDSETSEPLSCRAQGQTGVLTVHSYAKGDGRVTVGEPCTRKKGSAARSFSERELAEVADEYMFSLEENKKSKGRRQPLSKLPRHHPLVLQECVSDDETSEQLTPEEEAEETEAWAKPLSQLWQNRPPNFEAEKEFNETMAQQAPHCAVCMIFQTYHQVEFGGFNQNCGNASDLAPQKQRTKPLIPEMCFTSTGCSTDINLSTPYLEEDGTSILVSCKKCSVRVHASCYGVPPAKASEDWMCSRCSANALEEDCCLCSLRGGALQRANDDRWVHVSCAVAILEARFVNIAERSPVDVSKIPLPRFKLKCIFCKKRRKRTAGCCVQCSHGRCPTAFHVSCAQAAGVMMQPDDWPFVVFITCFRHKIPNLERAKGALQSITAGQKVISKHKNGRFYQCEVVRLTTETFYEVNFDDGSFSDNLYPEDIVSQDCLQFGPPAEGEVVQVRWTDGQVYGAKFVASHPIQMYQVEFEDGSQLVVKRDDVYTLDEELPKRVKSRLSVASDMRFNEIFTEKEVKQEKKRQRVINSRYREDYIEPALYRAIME

PCAF-Flag (human) = PCAF-Flag (human) (UniProt Q92831)

Measured: binding

B1: VRK1-HA (enzyme, UniProt Q99986 1-396)
chain: MPRVKAAQAGRQSSAKRHLAEQFAVGEIITDMAKKEWKVGLPIGQGGFGCIYLADMNSSESVGSDAPCVVKVEPSDNGPLFTELKFYQRAAKPEQIQKWIRTRKLKYLGVPKYWGSGLHDKNGKSYRFMIMDRFGSDLQKIYEANAKRFSRKTVLQLSLRILDILEYIHEHEYVHGDIKASNLLLNYKNPDQVYLVDYGLAYRYCPEGVHKEYKEDPKRCHDGTIEFTSIDAHNGVAPSRRGDLEILGYCMIQWLTGHLPWEDNLKDPKYVRDSKIRYRENIASLMDKCFPEKNKPGEIAKYMETVKLLDYTEKPLYENLRDILLQGLKAIGSKDDGKLDLSVVENGGLKAKTITKKRKKEIEESKEPGVEDTEWSNTQTEEAIQTRSRTRKRVQK
binds: all assays above
